Data as given in PubChem BioAssay AID540276 (National Center for Advancing Translational Sciences (NCATS), 2011).
Out of some 300,000 compounds screened, about 5,400 (1.8%) were called active. This list was built around the results that the source calls inconclusive (neither active nor inactive); the mix of calls is not that of the screen. The call rests on the fitted dose curve; tested in HEK293 cells. Potencies of inconclusive entries are doubtful fits and often do not repeat.

assay: qHTS for inhibitors of binding or entry into cells for Marburg Virus; settings: Marburg virus pseudotyped entry inhibition, cell reporter; activity change, negative = inhibition: at 37.8 µM (top of the series) unless noted
On the % scale 0 is the no-effect control and ±100 the full control effect; potency means the concentration at half of the fitted maximal effect.

Question: With `O=C1c2cccc3cccc(c23)C(=O)N1CCN1CCN(C(=S)Nc2ccccc2)CC1` as the molecule, how does the “activity change, negative = inhibition” value read?
Answer: inactive: -24.5%

Question: Which Potency does the source give for `CNC(=O)C1CC(=O)N/C(=N/N=C(\C)c2cccs2)S1` (stereo not given) here?
Answer: inconclusive: 0.651 µM [inhibitor, full curve]

Question: For `c1ccc(-c2noc(CSc3nc4ccccc4o3)n2)cc1`, which “activity change, negative = inhibition” value is on record?
Answer: inactive: 12.8%

Question: With `Fc1ccccc1CCNCc1ccccc1` as the molecule, how does the Potency read?
Answer: inconclusive: 35.5 µM [inhibitor, single point]

Question: For `COc1ccc(-c2cc(C(F)(F)F)nc(SCC(=O)N(C)Cc3cn(C)nc3C)n2)cc1OC`, which Potency is on record?
Answer: inconclusive: 25.1 µM [inhibitor, single point]

Question: For `NCC(CP(=O)(O)O)c1ccc(Cl)cc1` (stereo not given), which Potency is on record?
Answer: inactive

Question: With `O=C(Cc1sc(Nc2ccccc2)nc1-c1ccccc1)NCc1ccccc1` as the molecule, how does the Potency read?
Answer: inconclusive: 14.1 µM [inhibitor, single point]

Question: For `Cc1cc(C(=O)COC(=O)c2ccc[nH]c2=O)c(C)n1C`, which “activity change, negative = inhibition” value is on record?
Answer: inactive: -3.62%

Question: For `O=C1[C@@H]2Cc3c([nH]c4ccccc34)C(c3cccc(Br)c3)N2C(=O)CN1C1CCN(Cc2ccccc2)CC1` (stereo not given in full), which Potency is on record?
Answer: inconclusive: 17.8 µM [inhibitor, partial curve, poor fit]

Question: With `Cc1ccc(S(=O)(=O)NCCC(=O)Nc2ncccc2O)cc1C` as the molecule, how does the Potency read?
Answer: inconclusive: 2.51 µM [activator, partial curve, poor fit]

Question: With `COc1ccc(CN2CCN(C(=O)Cn3nc(C)n4cccc4c3=O)CC2)c(OC)c1OC` as the molecule, how does the “activity change, negative = inhibition” value read?
Answer: inactive: 7.37% [at 46.1 µM]

Question: With `O=C(C1CC(=O)N(c2ccc(F)cc2)C1)N1CCC(c2nc3ccccc3[nH]2)CC1` (stereo not given) as the molecule, how does the “activity change, negative = inhibition” value read?
Answer: inactive: 20.5%

Question: With `O=C(CSc1ccc(-c2ccco2)nn1)Nc1ccc(F)cc1` as the molecule, how does the Potency read?
Answer: inconclusive: 0.631 µM [inhibitor, full curve, poor fit]

Question: For `CN(C)CCN(CC1CCCN(Cc2ccccc2F)C1)C(=O)c1ccc(F)cc1` (stereo not given), which Potency is on record?
Answer: inconclusive: 11.2 µM [inhibitor, partial curve, poor fit]

Question: Which Potency does the source give for `COc1ccc2c(=O)c(C(=O)NCCc3ccc(OC)c(OC)c3)c[nH]c2c1` here?
Answer: active: 7.3 µM

Question: With `O=C(Cc1ccc(Cl)cc1)Nc1ccc(S(=O)(=O)N2CCOCC2)cc1` as the molecule, how does the “activity change, negative = inhibition” value read?
Answer: inactive: 7.7% [at 46.1 µM]

Question: With `COc1ccc(N2CCN(C(=O)CSc3nnc(CNc4ccccc4)o3)CC2)cc1` as the molecule, how does the “activity change, negative = inhibition” value read?
Answer: inactive: -12.1%

Question: Which Potency does the source give for `COc1ccc(CNCc2ccc(F)cc2)c(OC)c1` here?
Answer: inconclusive: 10 µM [inhibitor, single point]

Question: For `O=C(NCC(c1ccco1)N1CCN(c2ccc(F)cc2)CC1)OCc1ccccc1` (stereo not given), which Potency is on record?
Answer: inconclusive: 3.98 µM [inhibitor, partial curve, poor fit]

Question: Which Potency does the source give for `COc1cc(C2Nc3ccc4ncccc4c3C3=C2C(=O)CCC3)cc(OC)c1O` (stereo not given) here?
Answer: inconclusive: 20 µM [inhibitor, single point]
